Legend:
STK25/YSK1 = STK25/YSK1 (Homo sapiens, UniProt O00506); assay: biochemical; details: read-out: % enzyme activity, 1 μM; Run 1, Run 2
MYO3b = MYO3b (Homo sapiens, UniProt Q8WXR4); details: 1 μM; Run 1, Run 2
c-Src = c-Src (Homo sapiens, UniProt P12931); assay: biochemical; details: read-out: % enzyme activity, 1 μM; Run 1, Run 2
PEAK1 = PEAK1 (Homo sapiens, UniProt Q9H792); details: 1 μM; Run 1, Run 2
CK1a1L = CK1a1L (Homo sapiens, UniProt Q8N752); details: 1 μM; Run 1, Run 2
CLK1 = CLK1 (Homo sapiens, UniProt P49759); assay: biochemical; details: read-out: % enzyme activity, 1 μM; Run 1, Run 2
PKN1/PRK1 = PKN1/PRK1 (Homo sapiens, UniProt Q16512); details: 1 μM; Run 1, Run 2
TESK1 = TESK1 (Homo sapiens, UniProt Q15569); details: 1 μM; Run 1, Run 2
MAST3 = MAST3 (Homo sapiens, UniProt O60307); assay: biochemical; details: read-out: % enzyme activity, 1 μM; Run 1, Run 2
NEK9 = NEK9 (Homo sapiens, UniProt Q8TD19); details: 1 μM; Run 1, Run 2
FGR = FGR (Homo sapiens, UniProt P09769); details: 1 μM; Run 1, Run 2
CDK4/cyclin D1 = CDK4/cyclin D1 (Homo sapiens, UniProt P11802); assay: biochemical; details: read-out: % enzyme activity, 1 μM; Run 1, Run 2
PHKg2 = PHKg2 (Homo sapiens, UniProt P15735); details: 1 μM; Run 1, Run 2
Haspin = Haspin (Homo sapiens, UniProt Q8TF76); assay: biochemical; details: read-out: % enzyme activity, 1 μM; Run 1, Run 2
Aurora A = Aurora A (Homo sapiens, UniProt O14965); details: 1 μM; Run 1, Run 2
PKCmu/PRKD1 = PKCmu/PRKD1 (Homo sapiens, UniProt Q15139); assay: biochemical; details: read-out: % enzyme activity, 1 μM; Run 1, Run 2
LYN [1] = biological target: T1, LYN (Homo sapiens, UniProt P07948); details: 1 μM; Run 1, Run 2
MEKK3 = MEKK3 (Homo sapiens, UniProt Q99759); assay: biochemical; details: read-out: % enzyme activity, 1 μM; Run 1, Run 2
EPHA4 = EPHA4 (Homo sapiens, UniProt P54764); assay: biochemical; details: read-out: % enzyme activity, 1 μM; Run 1, Run 2
PKD2/PRKD2 = PKD2/PRKD2 (Homo sapiens, UniProt Q9BZL6); assay: biochemical; details: read-out: % enzyme activity, 1 μM; Run 1, Run 2
CAMKK1 = CAMKK1 (Homo sapiens, UniProt Q8N5S9); assay: biochemical; details: read-out: % enzyme activity, 1 μM; Run 1, Run 2
CK1a1 = CK1a1 (Homo sapiens, UniProt P48729); details: 1 μM; Run 1, Run 2
PKN3/PRK3 = PKN3/PRK3 (Homo sapiens, UniProt Q6P5Z2); details: 1 μM; Run 1, Run 2
CK2a = CK2a (Homo sapiens, UniProt P68400); details: 1 μM; Run 1, Run 2
PBK/TOPK = PBK/TOPK (Homo sapiens, UniProt Q96KB5); assay: biochemical; details: read-out: % enzyme activity, 1 μM; Run 1, Run 2
ERN1/IRE1 = ERN1/IRE1 (Homo sapiens, UniProt O75460); assay: biochemical; details: read-out: % enzyme activity, 1 μM; Run 1, Run 2
FRK/PTK5 = FRK/PTK5 (Homo sapiens, UniProt P42685); assay: biochemical; details: read-out: % enzyme activity, 1 μM; Run 1, Run 2
ERK1 = ERK1 (Homo sapiens, UniProt P27361); assay: biochemical; details: read-out: % enzyme activity, 1 μM; Run 1, Run 2
CAMK1b = CAMK1b (Homo sapiens, UniProt Q6P2M8); assay: biochemical; details: read-out: % enzyme activity, 1 μM; Run 1, Run 2
PKAcb = PKAcb (Homo sapiens, UniProt P22694); assay: biochemical; details: read-out: % enzyme activity, 1 μM; Run 1, Run 2
LIMK1 = LIMK1 (Homo sapiens, UniProt P53667); assay: biochemical; details: read-out: % enzyme activity, 1 μM; Run 1, Run 2
PKCg = PKCg (Homo sapiens, UniProt P05129); details: 1 μM; Run 1, Run 2
PKCepsilon = PKCepsilon (Homo sapiens, UniProt Q02156); assay: biochemical; details: read-out: % enzyme activity, 1 μM; Run 1, Run 2
IKKe/IKBKE = IKKe/IKBKE (Homo sapiens, UniProt Q14164); assay: biochemical; details: read-out: % enzyme activity, 1 μM; Run 1, Run 2
CAMK1a = CAMK1a (Homo sapiens, UniProt Q14012); assay: biochemical; details: read-out: % enzyme activity, 1 μM; Run 1, Run 2
EPHA1 = EPHA1 (Homo sapiens, UniProt P21709); details: 1 μM; Run 1, Run 2
MARK4 = MARK4 (Homo sapiens, UniProt Q96L34); assay: biochemical; details: read-out: % enzyme activity, 1 μM; Run 1, Run 2
LYN [2] = biological target: T1, LYN; assay: biochemical; details: read-out: % enzyme activity, 1 μM; Run 1, Run 2
FGFR4 = FGFR4 (Homo sapiens, UniProt P22455); details: 1 μM; Run 1, Run 2
STK33 = STK33 (Homo sapiens, UniProt Q9BYT3); assay: biochemical; details: read-out: % enzyme activity, 1 μM; Run 1, Run 2
GSK3b = GSK3b (Homo sapiens, UniProt P49841); details: 1 μM; Run 1, Run 2
PKCb1 = PKCb1 (Homo sapiens, UniProt P05771); details: 1 μM; Run 1, Run 2
LOK/STK10 = LOK/STK10 (Homo sapiens, UniProt O94804); details: 1 μM; Run 1, Run 2

COc1cc(-c2cncc(-c3ccc(N4CCN(C(C)C)CC4)cc3)c2C)cc(F)c1C(N)=O [Compound 26b, 2-Fluoro-4-(5-(4-(4-isopropylpiperazin-1-yl)phenyl)-4-methylpyridin-3-yl)-6-methoxybenzamide]
remaining activity at 1 µM (STK25/YSK1): 92.8%
% enzyme activity (MYO3b): 84.87%
remaining activity at 1 µM (c-Src): 98.3%
% enzyme activity (PEAK1): 110.20%
% enzyme activity (CK1a1L): 102.82%
remaining activity at 1 µM (CLK1): 93.6%
% enzyme activity (PKN1/PRK1): 94.01%
% enzyme activity (TESK1): 108.28%
remaining activity at 1 µM (MAST3): 97.5%
% enzyme activity (NEK9): 87.78%
% enzyme activity (FGR): 91.32%
remaining activity at 1 µM (CDK4/cyclin D1): 100%
% enzyme activity (PHKg2): 95.06%
remaining activity at 1 µM (Haspin): 84.8%
% enzyme activity (Aurora A): 91.68%
remaining activity at 1 µM (PKCmu/PRKD1): 93.3%
% enzyme activity (LYN [1]): 82.25%
remaining activity at 1 µM (MEKK3): 99.8%
remaining activity at 1 µM (EPHA4): 101%
remaining activity at 1 µM (PKD2/PRKD2): 105%
remaining activity at 1 µM (CAMKK1): 92.7%
% enzyme activity (CK1a1): 99.26%
% enzyme activity (PKN3/PRK3): 98.77%
% enzyme activity (CK2a): 85.73%
remaining activity at 1 µM (PBK/TOPK): 95%
remaining activity at 1 µM (ERN1/IRE1): 98.3%
remaining activity at 1 µM (FRK/PTK5): 100%
remaining activity at 1 µM (ERK1): 98.7%
remaining activity at 1 µM (CAMK1b): 101%
remaining activity at 1 µM (PKAcb): 99.4%
remaining activity at 1 µM (LIMK1): 77.9%
% enzyme activity (PKCg): 97.90%
remaining activity at 1 µM (PKCepsilon): 97.8%
remaining activity at 1 µM (IKKe/IKBKE): 92.2%
remaining activity at 1 µM (CAMK1a): 94.7%
% enzyme activity (EPHA1): 97.40%
remaining activity at 1 µM (MARK4): 83.5%
remaining activity at 1 µM (LYN [2]): 84%
% enzyme activity (FGFR4): 94.51%
remaining activity at 1 µM (STK33): 97.3%
% enzyme activity (GSK3b): 96.28%
% enzyme activity (PKCb1): 86.84%
% enzyme activity (LOK/STK10): 61.54%

Reference: article PMC8213057, “Targeting ALK2: An Open Science Approach to Developing Therapeutics for the Treatment of Diffuse Intrinsic Pontine Glioma” (Journal of Medicinal Chemistry, 2020)
